PubChem BioAssay AID686943 – Drosophila RNAi Screening Center – 2013

- Test: 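Fly genes whose loss alters ERK activation after insulin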 (primary screen)
- Cells: Drosophila S2R+ haemocyte-like cells expressing YFP-tagged ERK (Rolled)
- Reagents: long dsRNA against Drosophila genes
- Conditions: insulin stimulation versus unstimulated cells; dose and duration not given
- Read-out: 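Antibody staining for doubly phosphorylated ERK divided by ERK-YFP signal, as plate z-scores, in insulin-treated and untreated cells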
- Reading the numbers: replicate 1, z-score of dpERK with insulin and replicate 2, z-score of dpERK with insulin: higher = more active ERK per ERK-YFP after insulin; replicate 1, z-score of dpERK under basal conditions: higher = more basal active ERK per ERK-YFP; replicate 1, z-score of ERK-YFP with insulin: higher = more YFP-tagged ERK signal
The screen tested about 23,000 reagents; below is a random part of those that have a named target and a result. 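Extra replicates exist only for a retested subset of genes; insulin dose and duration not given; both raised and lowered dpERK matter.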 No sequences are given here. Not given: the amount of reagent, the time to read-out.

no.	gene	dsRNA	replicate 1, z-score of dpERK with insulin	replicate 2, z-score of dpERK with insulin	replicate 1, z-score of dpERK under basal conditions	replicate 1, z-score of ERK-YFP with insulin
1	Npc1b (Niemann-Pick type C-1b)	DRSC20488	-0.09	0.17	0.09	-0.32
2	aust (australin)	DRSC02558	0.12	0.63	1.17	0.06
3	HERC2 (HECT and RLD domain containing protein 2)	DRSC20566	0.75	0.76	-0.36	0.49
4	Lsp1alpha (Larval serum protein 1 alpha)	DRSC20258	-0.24	-0.01	-0.66	0.93
5	Chi (Chip)	DRSC04602	-0.66	0.09	0.07	0.25
6	Eb1	DRSC05016	1.35	0.25	0.11	-0.37
7	CG15080	DRSC06511	0.54	1.54	-0.31	0.01
8	Uck (Uridine-cytidine kinase)	DRSC13661	-0.41	-1.05	-0.27	0.71
9	Uck (Uridine-cytidine kinase)	DRSC16028	-0.8	0.37	0.48	-0.43
10	CG34008	DRSC13428	-0.53	-0.14	-0.4	-0.03
11	Ir87a (Ionotropic receptor 87a)	DRSC14836	1.03	-1.65	-0.57	-0.39
12	CG34196	DRSC05704	0.73	0.45	-0.02	-0.24

The list goes on, starting with the last 2 of the part before.
no.	gene	dsRNA	replicate 1, z-score of dpERK with insulin	replicate 2, z-score of dpERK with insulin	replicate 1, z-score of dpERK under basal conditions	replicate 1, z-score of ERK-YFP with insulin
11	Ir87a (Ionotropic receptor 87a)	DRSC14836	1.03	-1.65	-0.57	-0.39
12	CG34196	DRSC05704	0.73	0.45	-0.02	-0.24
13	ras (raspberry)	DRSC18825	-0.85	1.11	2.55	-0.71
14	SMC1 (Structural maintenance of chromosomes 1)	DRSC16846	2.66	-0.14	-0.54	0.28
15	CG3902	DRSC10387	0.08	0.06	0.84	0.21
16	TH1	DRSC20289	1.22	0.96	-1.45	-0.29
17	Fak (Focal adhesion kinase)	DRSC07426	-0.11	-0.05	0.19	0.05
18	Vps8 (Vacuolar protein sorting 8)	DRSC09705	-0.3	0.38		1.25
19	RanBPM (Ran-binding protein M)	DRSC06079	0.16	-0.29	-0.08	1.11
20	PolE4 (DNA polymerase epsilon subunit 4)	DRSC04105	0.24	-0.31	-0.97	0.85
21	CG31220	DRSC22248	0.31	0.28	1.09	-0.09
22	ND1 (retired record)	DRSC21273	0.21	0.81	1.13	-0.36
23	AOX1 (Aldehyde oxidase 1)	DRSC15339	-0.1	-0.47	0.15	-0.16
